Where “and” joins values, the source holds several entries; their conditions need not be identical. Identical values can stand only once.
Assay: general procedure: Fmoc solid-phase peptide synthesis; Fmoc-Gly-Wang Resin; DIC + HOBt·H2O or Ethyl (hydroxyimino)cyanoacetate; HATU or DEPBT + DIPEA
Details: whole synthesis

Substance: semaglutide
- isolated yield (estimated total recovery, run 1): 16.9% and 17.3% and 22.0% and 24.7%
- crude mass (scale 31.8 mmol): 14.229 g
- crude purity (method not given) (run 1): 34.85% and 34.51% and 35.8% and 29.4%
- crude purity (method not given) (run 2): 60.35% and 52.17% and 57.13%

— US20230406900 (published 2023)
